Laboratory results: PubChem BioAssay AID1259308 (NCATS, 2017)
The deposit covers about 59,000 reagents; this is a random part of them. Over the whole deposit, about 1,510 (2.6%) are marked active. 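Calls use total luciferase alone and ignore viability, so some active siRNAs may act by altering cell number.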 Unmarked entries are inactive. The numbers tell different reagents against one gene apart. Further read-outs or replicates are left out here. Reagent sequences are not shown.

Assay: 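Genes whose loss raises luciferase production in HEK293 cells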 (primary screen)
Cells: human HEK293 embryonic kidney cells stably expressing firefly luciferase (HEK-CMV-Luc2-Hygro)
Reagents: single siRNA against human genes, 0.8 pmol siRNA per well
Timing: 72 h
Measurement: 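Reporter luminescence and viable-cell signal on separate replicate plates, given as percent of non-targeting control and median/MAD z-scores, plus per-cell luciferase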
Scale: total luciferase, z-score: higher = more reporter protein produced
Rule for the call: 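An siRNA counts as active if its total luciferase robust z-score exceeds 3; genes with two or more such siRNAs out of three were retested with fresh siRNAs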
Meaning of the calls: active = raised luciferase; inactive = no rise

total luciferase, z-score, by target gene and reagent
TBCEL: #1 1.19; #2 2.61; #3 -2.08
SLC12A6: #1 0.852; #2 -1.28; #3 1.76
RBFOX3: #1 2.72; #2 0.202; #3 -0.0874; #4 2.99; #5 -1.26; #6 -0.622
WNT2B: #1 -0.318; #2 -0.427; #3 0.918
GLA: #1 0.0588; #2 1.55; #3 -1.3
CYP2U1: #1 0.594; #2 -0.608; #3 -0.216
IGFL3: #1 0.819; #2 -0.252; #3 -0.689

Looked up above.
GLA #3, total luciferase, z-score: -1.3
Value of RBFOX3 #1 in “total luciferase, z-score”: 2.72
